This assay deals with polyubiquitin (K48Ub2-8, UBPBio, D1500) (UniProt P0CG48). Put plainly: pull-down; competition: 2.2 ug polyubiquitin pre-incubated with 1 ug synthetic polypeptide for 1 h at 4°C before the incubation with the GST-fusion protein; otherwise as the GST pull-down; both purified.

These are yes or no findings as the source states them, for the method shown. Some binding calls cover weakened binding; strength is not graded here.

On to ADLETLGYETDLELAIALSLQEHNQLTD [synthetic polypeptide XtCRY6DI-UIM_WT], for which the binding result is listed as “binds”.
